Measured values reported in patent US6960685B2 (TopoTarget UK Limited, priority 2000, dated 2005).

Test system: NHEK-Ad primary human adult keratinocyte line
Experiment: Secondary assay: cell proliferation WST-1, NHEK-Ad
Assay type: cell-based
Conditions: 48 h, read-out: Cell Proliferation Inhibition WST-1 IC50, NHEK-AD
Procedure: Compounds with HDAC inhibition activity, as determined using the primary assay, were subsequently evaluated using secondary cell-based assays. The following cell lines were used:
NHEK-Ad—Primary human adult keratinocyte line (Cambrex Corp., East Rutherford, N.J., USA).
Cells were plated in 96-well plates at 3-10×10^3 cells/well in 100 μL of culture medium. The following day, different concentrations of candidate compounds were added and the cells incubated at 37° C. for 48 h. Subsequently, 10 μL/well of WST-1 reagent was added and the cells reincubated for 1 hour. After the incubation time, absorbance was measured.
WST-1 is a tetrazolium salt which is cleaved to formazan dye by cellular enzymes. An expansion in the number of viable cells results in an increase in the overall activity of mitochondrial dehydrogenases in the sample. This augmentation in the enzyme activity leads to an increase in the amount of formazan dye formed, which directly correlates to the number of metabolically active cells in the culture. The formazan dye produced is quantified by a scanning multiwell spectrophotometer by measuring the absorbance of the dye solution at 450 nm wavelength (reference wavelength 690 nm).
IC50 values were calculated using the software package Prism 3.0 (GraphPad Software Inc., San Diego, Calif.), setting top value at 100 and bottom value at 0.

For `O=C(CCCCCCC(=O)Nc1ccccc1)NO` [SAHA, suberoylanilide hydroxamic acid], the IC50 was 5.37 µM.
